The record followed here is paper PMC5538822, “RNA-dependent stabilization of SUV39H1 at constitutive heterochromatin”.

For at least one entry, the source does not settle the construct or the ends of the probe. At least one verdict rests on a figure or table, not on a statement of the authors. Protein sequences can lack the tags named with them.

This data set has as its target T1, MBP-SUV39H1 42-106 (chromodomain) (Homo sapiens) (UniProt O43463).
T1 sequence (looked up): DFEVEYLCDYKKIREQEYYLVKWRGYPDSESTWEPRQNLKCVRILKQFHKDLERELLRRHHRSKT
Description: filter binding. The conditions noted are these: 20 mM Tris-HCl pH 7.4, 50 mM NaCl, 10% glycerol, ~4 U RNase inhibitor, room temperature 10 min; native gel 0.5X TBE at 25 C; recombinant protein; residues 42-106; protein details: MBP; label: 32P.

For AUAUGGGAACCACUGAUCC [sense 19mer ssRNA], the binding result is recorded as “binds”.
